Test results taken from publication PMC12826672.
These are yes or no findings as the source states them, for the method shown. Binding seen in cells or lysates may run through a third protein. Some binding calls cover weakened binding; strength is not graded here.

Target: KCNE1 (MinK), modulatory subunit of KCNQ1 (human (endogenous in iPSC-aCMs)) (UniProt P15382)
Assay: co-IP; anti-KCNE1 (Alomone APC-163) IP from precleared RIPA lysates of WT and TTN-T32756I iPSC-aCMs, Protein A/G agarose beads, 4 °C; immunoblot for FHL2 and MinK

- binding: binds
B1: Four-and-a-half LIM domain protein 2 (FHL2) (protein, UniProt Q14192 1-279)
chain: MTERFDCHHCNESLFGKKYILREESPYCVVCFETLFANTCEECGKPIGCDCKDLSYKDRHWHEACFHCSQCRNSLVDKPFAAKEDQLLCTDCYSNEYSSKCQECKKTIMPGTRKMEYKGSSWHETCFICHRCQQPIGTKSFIPKDNQNFCVPCYEKQHAMQCVQCKKPITTGGVTYREQPWHKECFVCTACRKQLSGQRFTARDDFAYCLNCFCDLYAKKCAGCTNPISGLGGTKYISFEERQWHNDCFNCKKCSLSLVGRGFLTERDDILCPDCGKDI
